± gives the standard deviation of the averaged measurements. The list shows a part of the results, in another mix than the full data.
Compound: Nc1ncnc2c1ncn2[C@@H]1O[C@H](COP(=O)(O)OP(=O)(O)OP(=O)(O)O)[C@@H](O)[C@H]1O [adenosine triphosphate]
Experiment: NP40-soluble protein abundance relative to vehicle (solubility fold change) (ratio); higher = more soluble protein in presence of ATP
Summary of the method: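 In three independent experiments, Jurkat crude lysate made by Dounce homogenisation was treated for 10 min at room temperature and then 3 min at 37 °C with eight concentrations ranging from 0.1 to 10 mM. It was then solubilised with 0.8% NP40 plus benzonase for 60 min at 4 °C and ultracentrifuged. The supernatant was TMT-labelled for LC-MS/MS, and each value is the fold change against the detergent-processed vehicle for the same replicate, using vsn-normalised intensities.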

By UniProt entry, the sequences of proteins in these tests, tags left out. Where a name states a change or a piece, a line headed by the entry shows the natural chain unless it says otherwise.
UniProt P26374: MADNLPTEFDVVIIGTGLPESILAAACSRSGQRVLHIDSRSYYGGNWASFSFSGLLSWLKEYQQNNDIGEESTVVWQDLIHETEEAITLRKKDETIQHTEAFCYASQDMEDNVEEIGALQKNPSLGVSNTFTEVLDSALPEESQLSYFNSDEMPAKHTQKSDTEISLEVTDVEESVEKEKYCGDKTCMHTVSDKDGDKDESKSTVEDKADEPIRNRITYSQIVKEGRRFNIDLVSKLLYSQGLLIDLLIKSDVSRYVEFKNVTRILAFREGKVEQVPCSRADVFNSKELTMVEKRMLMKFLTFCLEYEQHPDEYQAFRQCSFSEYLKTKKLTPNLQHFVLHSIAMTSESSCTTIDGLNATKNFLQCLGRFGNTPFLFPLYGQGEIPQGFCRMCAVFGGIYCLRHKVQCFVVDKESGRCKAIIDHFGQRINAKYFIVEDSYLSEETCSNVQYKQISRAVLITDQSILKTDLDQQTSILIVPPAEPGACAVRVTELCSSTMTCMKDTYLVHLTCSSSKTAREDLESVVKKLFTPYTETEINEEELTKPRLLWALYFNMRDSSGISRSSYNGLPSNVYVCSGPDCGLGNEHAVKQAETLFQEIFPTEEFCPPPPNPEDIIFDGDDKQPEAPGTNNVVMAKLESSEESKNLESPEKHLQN
UniProt P27987: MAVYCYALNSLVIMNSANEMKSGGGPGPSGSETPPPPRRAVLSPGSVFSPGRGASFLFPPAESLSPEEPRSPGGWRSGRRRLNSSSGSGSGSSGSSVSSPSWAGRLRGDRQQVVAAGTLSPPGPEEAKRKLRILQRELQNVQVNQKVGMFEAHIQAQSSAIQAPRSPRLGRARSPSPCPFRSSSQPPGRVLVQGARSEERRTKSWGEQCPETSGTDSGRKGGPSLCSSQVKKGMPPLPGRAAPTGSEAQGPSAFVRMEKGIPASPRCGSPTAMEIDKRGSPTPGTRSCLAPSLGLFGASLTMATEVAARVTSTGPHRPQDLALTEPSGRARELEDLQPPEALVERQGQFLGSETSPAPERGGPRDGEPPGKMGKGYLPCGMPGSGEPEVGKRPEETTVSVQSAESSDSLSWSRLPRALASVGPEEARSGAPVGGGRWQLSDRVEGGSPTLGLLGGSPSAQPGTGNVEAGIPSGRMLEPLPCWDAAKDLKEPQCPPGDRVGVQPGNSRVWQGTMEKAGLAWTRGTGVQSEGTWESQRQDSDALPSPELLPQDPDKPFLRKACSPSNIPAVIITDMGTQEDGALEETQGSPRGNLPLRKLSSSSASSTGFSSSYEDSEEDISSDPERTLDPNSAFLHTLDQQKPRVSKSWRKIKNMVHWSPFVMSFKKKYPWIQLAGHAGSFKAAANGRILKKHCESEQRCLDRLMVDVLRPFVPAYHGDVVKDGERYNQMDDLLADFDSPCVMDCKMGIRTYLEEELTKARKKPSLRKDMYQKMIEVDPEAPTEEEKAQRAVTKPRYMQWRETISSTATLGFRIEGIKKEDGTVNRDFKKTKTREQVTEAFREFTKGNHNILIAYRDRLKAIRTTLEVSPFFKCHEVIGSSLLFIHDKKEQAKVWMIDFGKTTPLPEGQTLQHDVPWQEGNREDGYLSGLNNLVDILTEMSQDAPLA
UniProt P30679: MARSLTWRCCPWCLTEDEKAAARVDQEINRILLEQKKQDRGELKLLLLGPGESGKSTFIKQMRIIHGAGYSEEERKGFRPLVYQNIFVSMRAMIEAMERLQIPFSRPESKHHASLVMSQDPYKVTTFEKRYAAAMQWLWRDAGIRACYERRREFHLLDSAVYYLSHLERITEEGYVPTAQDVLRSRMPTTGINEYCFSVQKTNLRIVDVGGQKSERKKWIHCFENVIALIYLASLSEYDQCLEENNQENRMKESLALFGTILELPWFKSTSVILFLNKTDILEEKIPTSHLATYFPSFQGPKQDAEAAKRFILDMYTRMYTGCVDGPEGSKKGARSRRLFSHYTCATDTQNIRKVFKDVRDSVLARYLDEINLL
UniProt P31040: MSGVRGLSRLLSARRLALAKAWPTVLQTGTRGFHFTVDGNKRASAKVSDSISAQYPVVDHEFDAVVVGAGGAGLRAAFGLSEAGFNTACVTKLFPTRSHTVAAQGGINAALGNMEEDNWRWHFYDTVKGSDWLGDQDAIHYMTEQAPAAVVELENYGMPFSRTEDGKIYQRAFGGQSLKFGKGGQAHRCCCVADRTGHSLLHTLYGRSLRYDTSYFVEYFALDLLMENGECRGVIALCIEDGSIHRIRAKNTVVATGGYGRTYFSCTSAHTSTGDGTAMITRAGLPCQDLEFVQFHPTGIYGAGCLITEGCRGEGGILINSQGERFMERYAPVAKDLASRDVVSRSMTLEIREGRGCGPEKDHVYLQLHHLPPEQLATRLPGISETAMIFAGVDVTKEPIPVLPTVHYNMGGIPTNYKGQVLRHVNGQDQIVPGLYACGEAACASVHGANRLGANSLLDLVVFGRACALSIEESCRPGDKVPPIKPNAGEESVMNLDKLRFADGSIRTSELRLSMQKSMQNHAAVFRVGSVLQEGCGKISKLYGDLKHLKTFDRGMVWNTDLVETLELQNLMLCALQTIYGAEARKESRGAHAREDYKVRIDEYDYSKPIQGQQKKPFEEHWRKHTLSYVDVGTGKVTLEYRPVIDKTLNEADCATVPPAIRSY
UniProt P22033: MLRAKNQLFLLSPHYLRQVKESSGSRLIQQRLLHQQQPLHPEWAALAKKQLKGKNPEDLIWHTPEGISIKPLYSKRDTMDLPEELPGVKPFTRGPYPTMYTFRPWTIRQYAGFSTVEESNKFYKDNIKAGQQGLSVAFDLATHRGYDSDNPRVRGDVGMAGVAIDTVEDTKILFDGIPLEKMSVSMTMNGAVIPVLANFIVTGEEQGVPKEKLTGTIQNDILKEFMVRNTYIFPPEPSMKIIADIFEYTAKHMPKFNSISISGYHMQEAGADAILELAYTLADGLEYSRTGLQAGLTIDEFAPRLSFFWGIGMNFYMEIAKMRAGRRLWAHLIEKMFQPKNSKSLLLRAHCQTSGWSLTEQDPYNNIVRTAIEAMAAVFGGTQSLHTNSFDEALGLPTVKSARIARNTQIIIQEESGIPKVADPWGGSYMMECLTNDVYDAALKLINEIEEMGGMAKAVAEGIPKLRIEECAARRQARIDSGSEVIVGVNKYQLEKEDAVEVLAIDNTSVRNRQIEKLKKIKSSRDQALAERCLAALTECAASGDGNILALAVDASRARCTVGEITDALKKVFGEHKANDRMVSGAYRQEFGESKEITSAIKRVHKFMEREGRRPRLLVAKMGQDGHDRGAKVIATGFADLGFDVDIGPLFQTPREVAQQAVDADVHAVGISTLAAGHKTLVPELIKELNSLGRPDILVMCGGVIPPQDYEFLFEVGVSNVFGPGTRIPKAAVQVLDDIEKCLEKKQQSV
UniProt P28907, whole entry: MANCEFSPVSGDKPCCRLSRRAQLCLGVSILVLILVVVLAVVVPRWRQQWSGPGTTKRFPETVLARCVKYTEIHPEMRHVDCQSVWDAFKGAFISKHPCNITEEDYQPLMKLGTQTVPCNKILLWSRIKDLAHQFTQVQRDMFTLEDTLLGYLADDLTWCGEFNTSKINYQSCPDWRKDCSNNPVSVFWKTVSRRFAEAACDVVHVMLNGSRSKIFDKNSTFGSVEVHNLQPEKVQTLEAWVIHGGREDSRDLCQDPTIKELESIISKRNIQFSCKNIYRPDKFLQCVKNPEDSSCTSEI
UniProt P20073: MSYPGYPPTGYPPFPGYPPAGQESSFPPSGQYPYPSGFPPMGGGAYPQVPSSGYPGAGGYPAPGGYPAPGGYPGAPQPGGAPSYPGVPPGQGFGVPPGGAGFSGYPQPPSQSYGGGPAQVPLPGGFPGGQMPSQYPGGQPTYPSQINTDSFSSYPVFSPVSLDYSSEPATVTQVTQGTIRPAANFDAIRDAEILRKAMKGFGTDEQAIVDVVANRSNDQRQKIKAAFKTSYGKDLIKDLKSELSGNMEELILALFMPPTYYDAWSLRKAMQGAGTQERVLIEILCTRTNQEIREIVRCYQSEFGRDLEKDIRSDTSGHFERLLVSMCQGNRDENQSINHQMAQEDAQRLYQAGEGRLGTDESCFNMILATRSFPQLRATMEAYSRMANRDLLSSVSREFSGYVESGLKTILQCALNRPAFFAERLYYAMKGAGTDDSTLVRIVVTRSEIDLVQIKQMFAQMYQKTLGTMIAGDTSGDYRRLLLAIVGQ
UniProt P33991: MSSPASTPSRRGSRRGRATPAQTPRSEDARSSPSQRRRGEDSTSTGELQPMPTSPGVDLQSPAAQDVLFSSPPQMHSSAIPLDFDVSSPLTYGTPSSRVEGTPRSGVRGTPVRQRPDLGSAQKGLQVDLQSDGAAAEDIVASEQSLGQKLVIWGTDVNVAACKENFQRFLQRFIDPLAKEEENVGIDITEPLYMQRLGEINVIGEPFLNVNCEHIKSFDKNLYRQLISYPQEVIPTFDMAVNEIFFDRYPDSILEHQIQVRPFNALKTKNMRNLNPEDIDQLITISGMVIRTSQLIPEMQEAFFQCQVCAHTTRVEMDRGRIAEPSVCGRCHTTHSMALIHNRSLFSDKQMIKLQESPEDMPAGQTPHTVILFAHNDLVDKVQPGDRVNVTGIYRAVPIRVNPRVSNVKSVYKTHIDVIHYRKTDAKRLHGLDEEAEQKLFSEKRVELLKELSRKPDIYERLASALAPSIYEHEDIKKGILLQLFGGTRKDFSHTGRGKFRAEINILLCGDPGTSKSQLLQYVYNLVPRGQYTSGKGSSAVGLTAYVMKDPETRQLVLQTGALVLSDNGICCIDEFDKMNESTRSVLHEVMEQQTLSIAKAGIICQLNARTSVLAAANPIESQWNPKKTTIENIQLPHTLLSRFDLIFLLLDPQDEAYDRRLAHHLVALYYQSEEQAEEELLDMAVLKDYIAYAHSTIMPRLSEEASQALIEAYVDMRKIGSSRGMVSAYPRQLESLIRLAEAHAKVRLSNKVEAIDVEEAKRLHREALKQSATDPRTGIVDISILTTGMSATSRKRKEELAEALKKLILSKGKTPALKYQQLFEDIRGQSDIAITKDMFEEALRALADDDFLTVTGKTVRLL
UniProt P19525: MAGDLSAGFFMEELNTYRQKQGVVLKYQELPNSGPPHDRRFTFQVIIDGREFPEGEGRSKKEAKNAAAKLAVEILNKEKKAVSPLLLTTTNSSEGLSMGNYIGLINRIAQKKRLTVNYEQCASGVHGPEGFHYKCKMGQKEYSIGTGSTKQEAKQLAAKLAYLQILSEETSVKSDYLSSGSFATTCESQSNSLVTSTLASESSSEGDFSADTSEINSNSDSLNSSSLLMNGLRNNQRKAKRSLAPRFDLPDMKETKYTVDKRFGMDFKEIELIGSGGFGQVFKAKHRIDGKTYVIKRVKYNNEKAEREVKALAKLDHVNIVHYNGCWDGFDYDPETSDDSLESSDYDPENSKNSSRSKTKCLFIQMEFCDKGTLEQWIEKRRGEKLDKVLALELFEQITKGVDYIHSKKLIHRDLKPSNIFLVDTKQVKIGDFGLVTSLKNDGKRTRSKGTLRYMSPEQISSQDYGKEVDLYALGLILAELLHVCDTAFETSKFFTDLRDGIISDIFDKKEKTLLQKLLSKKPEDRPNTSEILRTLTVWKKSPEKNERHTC
UniProt P23771: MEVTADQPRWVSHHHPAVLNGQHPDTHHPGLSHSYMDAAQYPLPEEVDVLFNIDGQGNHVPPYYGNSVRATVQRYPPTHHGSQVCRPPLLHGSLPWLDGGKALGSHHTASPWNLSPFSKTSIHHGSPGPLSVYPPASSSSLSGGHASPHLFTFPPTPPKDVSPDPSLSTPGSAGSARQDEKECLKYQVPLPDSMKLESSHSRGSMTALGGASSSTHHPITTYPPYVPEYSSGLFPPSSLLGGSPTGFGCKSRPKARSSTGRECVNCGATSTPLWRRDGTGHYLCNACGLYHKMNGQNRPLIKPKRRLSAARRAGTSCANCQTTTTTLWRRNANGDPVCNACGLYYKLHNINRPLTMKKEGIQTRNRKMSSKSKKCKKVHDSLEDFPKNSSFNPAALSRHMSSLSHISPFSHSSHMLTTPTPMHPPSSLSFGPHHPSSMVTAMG
UniProt P30038: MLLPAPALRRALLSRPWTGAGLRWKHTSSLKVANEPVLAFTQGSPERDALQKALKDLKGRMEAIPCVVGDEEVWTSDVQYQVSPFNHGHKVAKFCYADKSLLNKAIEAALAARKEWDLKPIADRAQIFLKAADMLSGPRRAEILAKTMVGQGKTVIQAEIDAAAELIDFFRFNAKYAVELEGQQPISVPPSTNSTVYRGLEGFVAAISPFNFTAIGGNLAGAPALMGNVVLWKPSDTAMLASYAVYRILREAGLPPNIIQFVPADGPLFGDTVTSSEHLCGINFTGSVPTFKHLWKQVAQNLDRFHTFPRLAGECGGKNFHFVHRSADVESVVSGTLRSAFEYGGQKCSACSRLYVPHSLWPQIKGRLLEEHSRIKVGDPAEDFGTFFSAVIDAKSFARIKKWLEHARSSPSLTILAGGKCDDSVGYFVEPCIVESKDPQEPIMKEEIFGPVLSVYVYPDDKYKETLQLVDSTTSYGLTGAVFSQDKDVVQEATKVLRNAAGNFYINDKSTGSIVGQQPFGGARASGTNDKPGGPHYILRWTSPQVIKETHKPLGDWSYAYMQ

| Target | NP40-soluble protein abundance (concentration: 1mM) | NP40-soluble protein abundance (concentration: 2mM) | NP40-soluble protein abundance (concentration: 4mM) | NP40-soluble protein abundance (concentration: 6mM) | NP40-soluble protein abundance (concentration: 8mM) | NP40-soluble protein abundance (concentration: 10mM) |
| --- | --- | --- | --- | --- | --- | --- |
| CHML (UniProt P26374) | 0.949 ± 0.02 | 1.02 ± 0.062 | 0.989 ± 0.067 | 0.972 ± 0.077 | 0.948 ± 0.045 | 0.948 ± 0.057 |
| PRKAR2B (UniProt P31323) | 1.04 ± 0.07 | 1.03 ± 0.06 | 0.998 ± 0.021 | 1.03 ± 0.022 | 0.968 ± 0.032 | 1.03 ± 0.057 |
| ITPKB (UniProt P27987) | 0.929 ± 0.038 | 0.988 ± 0.035 | 0.942 ± 0.034 | 1.04 ± 0.083 | 0.93 ± 0.12 | 1.01 ± 0.058 |
| UniProt P23229 and related entries | 0.947 ± 0.021 | 1.02 ± 0.021 | 1 ± 0.026 | 1.01 ± 0.042 | 0.966 ± 0.021 | 0.987 ± 0.023 |
| GNA15 (UniProt P30679) | 1.05 ± 0.15 | 1.01 ± 0.12 | 1.01 ± 0.12 | 0.899 ± 0.15 | 1.02 ± 0.097 | 0.975 ± 0.083 |
| FKBP2 (UniProt P26885) | 0.923 ± 0.043 | 0.919 ± 0.044 | 0.882 ± 0.027 | 0.897 ± 0.031 | 0.894 ± 0.014 | 0.852 ± 0.058 |
| UniProt P35240 and related entries | 0.987 ± 0.034 | 1.01 ± 0.018 | 0.977 ± 0.01 | 1.01 ± 0.062 | 0.93 ± 0.0099 | 1 ± 0.049 |
| UniProt P19793 and related entries | 0.881 ± 0.031 | 1.01 ± 0.11 | 0.932 ± 0.074 | 0.943 ± 0.088 | 0.8555 ± 0.0076 | 0.978 ± 0.17 |
| KIF5B (UniProt P33176) | 0.967 ± 0.057 | 0.96 ± 0.019 | 0.943 ± 0.016 | 0.994 ± 0.038 | 0.943 ± 0.019 | 0.936 ± 0.029 |
| UniProt P27635 and related entries | 0.924 ± 0.031 | 0.909 ± 0.083 | 0.911 ± 0.052 | 0.831 ± 0.088 | 0.786 ± 0.076 | 0.964 ± 0.056 |
| SDHA (UniProt P31040) | 1.02 ± 0.054 | 0.994 ± 0.059 | 0.973 ± 0.052 | 0.976 ± 0.085 | 0.993 ± 0.041 | 0.97 ± 0.041 |
| UniProt P22033 | 0.994 ± 0.017 | 0.985 ± 0.044 | 0.958 ± 0.034 | 0.958 ± 0.077 | 0.964 ± 0.045 | 0.939 ± 0.058 |
| PFKL (UniProt P17858) | 1.06 ± 0.049 | 1.02 ± 0.024 | 1.021 ± 0.0043 | 0.9991 ± 0.0064 | 1.05 ± 0.039 | 1.06 ± 0.067 |
| UniProt P28907 | 0.966 ± 0.087 | 0.955 ± 0.054 | 0.943 ± 0.07 | 0.966 ± 0.067 | 0.919 ± 0.028 | 0.864 ± 0.11 |
| RPA3 (UniProt P35244) | 1.01 ± 0.04 | 0.999 ± 0.033 | 0.97 ± 0.072 | 0.978 ± 0.014 | 0.948 ± 0.071 | 0.908 ± 0.018 |
| UniProt P32189 and related entries | 1.06 ± 0.11 | 1.04 ± 0.13 | 1.03 ± 0.086 | 0.988 ± 0.089 | 1.01 ± 0.033 | 1.06 ± 0.079 |
| RPL7 (UniProt P18124) | 1.02 ± 0.088 | 0.962 ± 0.13 | 0.968 ± 0.11 | 0.88 ± 0.17 | 0.801 ± 0.15 | 0.927 ± 0.14 |
| UniProt P28702 and related entries | 0.915 ± 0.012 | 0.976 ± 0.048 | 0.992 ± 0.043 | 0.995 ± 0.04 | 0.944 ± 0.049 | 0.9378 ± 0.0066 |
| UniProt P20073 and related entries | 0.949 ± 0.056 | 0.9483 ± 0.003 | 0.933 ± 0.021 | 0.922 ± 0.026 | 0.925 ± 0.037 | 0.913 ± 0.043 |
| RPA1 (UniProt P27694) | 1.02 ± 0.079 | 1.01 ± 0.067 | 0.976 ± 0.059 | 0.96 ± 0.084 | 0.984 ± 0.06 | 0.978 ± 0.042 |
| M6PR (UniProt P20645) | 0.938 ± 0.023 | 0.931 ± 0.027 | 0.9422 ± 0.0066 | 0.934 ± 0.039 | 0.925 ± 0.039 | 0.878 ± 0.044 |
| MCM4 (UniProt P33991) | 0.983 ± 0.039 | 0.943 ± 0.026 | 0.913 ± 0.018 | 0.934 ± 0.037 | 0.958 ± 0.029 | 0.933 ± 0.034 |
| UniProt P18615 and related entries | 0.951 ± 0.031 | 0.95 ± 0.044 | 0.938 ± 0.032 | 0.983 ± 0.043 | 0.914 ± 0.066 | 0.916 ± 0.043 |
| POLR2E (UniProt P19388) | 1.09 ± 0.041 | 1.082 ± 0.0086 | 1.11 ± 0.027 | 1.04 ± 0.023 | 1.14 ± 0.042 | 1.09 ± 0.017 |
| UniProt P19525 | 1.1 ± 0.1 | 1.09 ± 0.065 | 1.07 ± 0.072 | 1.09 ± 0.11 | 1.09 ± 0.064 | 1.07 ± 0.043 |
| UniProt P23771 and related entries | 0.853 ± 0.026 | 0.857 ± 0.043 | 0.838 ± 0.05 | 0.806 ± 0.047 | 0.796 ± 0.0091 | 0.785 ± 0.03 |
| UniProt P23469 and related entries | 1.13 ± 0.09 | 1.16 ± 0.082 | 1.04 ± 0.062 | 1.02 ± 0.16 | 1.1 ± 0.25 | 1.015 ± 0.0043 |
| UniProt P25445 and related entries | 0.933 ± 0.048 | 0.949 ± 0.017 | 0.946 ± 0.026 | 0.992 ± 0.05 | 0.935 ± 0.035 | 0.889 ± 0.013 |
| ALDH4A1 (UniProt P30038) | 0.966 ± 0.064 | 0.967 ± 0.011 | 0.953 ± 0.019 | 0.962 ± 0.039 | 0.941 ± 0.015 | 0.938 ± 0.01 |
| UQCRC1 (UniProt P31930) | 0.9928 ± 0.0085 | 0.9881 ± 0.0093 | 0.964 ± 0.018 | 0.98 ± 0.02 | 0.957 ± 0.027 | 0.95 ± 0.022 |

Copied from the results shown (two entries):

| Target | NP40-soluble protein abundance (concentration: 1mM) | NP40-soluble protein abundance (concentration: 2mM) | NP40-soluble protein abundance (concentration: 4mM) | NP40-soluble protein abundance (concentration: 6mM) | NP40-soluble protein abundance (concentration: 8mM) | NP40-soluble protein abundance (concentration: 10mM) |
| --- | --- | --- | --- | --- | --- | --- |
| RPL7 (UniProt P18124) | 1.02 ± 0.088 | 0.962 ± 0.13 | 0.968 ± 0.11 | 0.88 ± 0.17 | 0.801 ± 0.15 | 0.927 ± 0.14 |
| UniProt P28702 and related entries | 0.915 ± 0.012 | 0.976 ± 0.048 | 0.992 ± 0.043 | 0.995 ± 0.04 | 0.944 ± 0.049 | 0.9378 ± 0.0066 |

Source: the supplement of paper PMC6411743
